Assay results published in patent US20220218664A1, “DRUG AND METHOD FOR TREATING OR PREVENTING COMPLICATIONS FROM DIABETES, USING SAID DRUG” (TMS Co., Ltd., priority 2019, published 2022).
At least one compound was matched to its structure with a doubt left.

How the values were obtained:
Format in all cases: in vivo, C57BL/6J male mice
[1] = tested on: streptozotocin-induced diabetic mice; assay: Von Frey test: evaluating mechanical stimulus; conditions: 3 mg/kg i.p. once a day; 1st week (before dosing)
Description: (§1) 9-week-old C57BL/6J male mice were purchased and familiarized with an animal facility for 1 week. 200 mg/kg of streptozotocin (streptozotocin; STZ) was administered […] into the peritoneal cavity of 10-week-old mice to prepare streptozotocin-induced diabetic mice (hereinafter also referred to as “STZ administration week 0”). One week after the administration of streptozotocin, blood was collected from the tail vein of the mice, and the blood glucose level (BS) was measured using an automatic blood glucose measuring device (product name: Medisafe (trademark) Mini GR-102, made by Terumo (Co)). Mice having a blood glucose level of 400 mg/dL or more were determined to be diabetic mice.
(§2) The SMTP-44D groups, the edaravone group, and the pregabalin group were administered SMTP-44D (0.3 mg/kg, 3 mg/kg, or 30 mg/kg doses, respectively), edaravone (10 mg/kg dose), or pregabalin (10 mg/kg dose) into the peritoneal cavity once a day for 3 consecutive weeks from the day following the first week to the fourth week after STZ administration.
The above-mentioned STZ group, SMTP-44D groups, edaravone group, pregabalin group, and control group mice were put in grid-like boxes, respectively, and were familiarized for one hour. […] A mean value of three mechanical thresholds (g) was calculated for 1 mouse, and then a mean value of the 12 mice for the respective groups was found.

[2] = tested on: streptozotocin-induced diabetic mice; assay: Hind plantar blood flow (laser perfusion imager); conditions: 30 mg/kg i.p. once a day; 4th week
Description: as §1, §2
The hind plantar blood flows (perfusion unit: PU) of the above-mentioned STZ group, SMTP-44D groups, edaravone group, pregabalin group, and control group mice were measured under isoflurane anesthesia using a full-field laser perfusion imager.

[3] = tested on: streptozotocin-induced diabetic mice; assay: Sciatic nerve conduction velocity; conditions: 0.3 mg/kg i.p. once a day; 4th week
Description: 9-week-old C57BL/6J male mice were purchased and familiarized with an animal facility for 1 week. 200 mg/kg of streptozotocin (streptozotocin; STZ) was administered […] into the peritoneal cavity of 10-week-old mice to prepare streptozotocin-induced diabetic mice (hereinafter also referred to as “STZ administration week 0”). One week after the administration of streptozotocin, blood was collected from the tail vein of the mice, and the blood glucose level (BS) was measured using an automatic blood glucose measuring device (product name: Medisafe (trademark) Mini GR-102, made by Terumo (Co)). Mice having a blood glucose level of 400 mg/dL or more were determined to be diabetic mice. […]
Sciatic nerves of the above-mentioned STZ group, SMTP-44D groups, edaravone group, pregabalin group, and control group mice on the 4th week were exposed under isoflurane anesthesia, and then, using the full-field laser perfusion imager, their sciatic nerve blood flows (perfusion unit: PU) were measured. After the sciatic nerve blood flows were measured, a voltage was output from a PowerLab through the […] to impart an electrical stimulus to the sciatic nerves using needle electrodes. […]

CC(C)=CCCC(C)=CCCC1(C)Oc2c(c(O)cc3c2CN(C(C(=O)O)c2ccc(O)cc2)C3=O)CC1O (stereo not drawn) [SMTP-44D]
von Frey test mechanical threshold [1]: 4.2 ± 0 1 g | Hind plantar blood flow [2]: 214.9 ± 12 2 PU | Sciatic nerve conduction velocity [3]: 54.9 ± 1 2 m/s
